Laboratory results published in patent publication US6815208B2, “Chemical treatment for hydrostatic test” (Champion Technologies, Inc., priority 2001, dated 2004).

Test system: Sulfate Reducing Bacteria (SRB)
Test: Evaluation of biocides in pH adjusted medium containing SRB, with coupons
Format: cell-based
Procedure: In these experiments, SRB or FAAPB cultures were treated with various concentrations of biocides, after raising the pH to 9.8-10.00. The bacterial growth in the treated samples was estimated by the serial dilution method. The visual appearance of coupons in treated and untreated samples was recorded. An aldehyde and phosphonium quat were used for biocides.

| Compound | Observation of Coupon (Concentration 12.5) | Observation of Coupon (Concentration 25) | Observation of Coupon (Concentration 75) | Observation of Coupon (Concentration 150) | Observation of Coupon (Concentration 18.75) | Observation of Coupon (Concentration 37.5) | Observation of Coupon (Concentration 112.5) |
| --- | --- | --- | --- | --- | --- | --- | --- |
| O=CCCCC=O [Glutaraldehyde, glutaraldehyde] | Black patches | Small black spots observed | Clean | Clean | – | – | – |
| tetrakis hydroxymethyl phosphonium sulfate [THPS] | – | – | – | – | Black patches | Few black spots | Clean |
